Data set [1] deals with NF-kB p65 (Homo sapiens (A549 cells)) (UniProt Q04206). The experiment in a line: EMSA. The note with it: nuclear extract, EMSA: DNA-binding buffer (composition not given), 10 min on ice then 10 min at 37 C, 7% native PAGE in 1x TBE, protein in an extract, label: 5'-FAM on strand 2. For orientation: A gel shift assay detects complexes by their altered migration in electrophoresis.

Protein sequences, listed by entry. Tags and fused reporters are not part of them.
UniProt Q04206, whole entry: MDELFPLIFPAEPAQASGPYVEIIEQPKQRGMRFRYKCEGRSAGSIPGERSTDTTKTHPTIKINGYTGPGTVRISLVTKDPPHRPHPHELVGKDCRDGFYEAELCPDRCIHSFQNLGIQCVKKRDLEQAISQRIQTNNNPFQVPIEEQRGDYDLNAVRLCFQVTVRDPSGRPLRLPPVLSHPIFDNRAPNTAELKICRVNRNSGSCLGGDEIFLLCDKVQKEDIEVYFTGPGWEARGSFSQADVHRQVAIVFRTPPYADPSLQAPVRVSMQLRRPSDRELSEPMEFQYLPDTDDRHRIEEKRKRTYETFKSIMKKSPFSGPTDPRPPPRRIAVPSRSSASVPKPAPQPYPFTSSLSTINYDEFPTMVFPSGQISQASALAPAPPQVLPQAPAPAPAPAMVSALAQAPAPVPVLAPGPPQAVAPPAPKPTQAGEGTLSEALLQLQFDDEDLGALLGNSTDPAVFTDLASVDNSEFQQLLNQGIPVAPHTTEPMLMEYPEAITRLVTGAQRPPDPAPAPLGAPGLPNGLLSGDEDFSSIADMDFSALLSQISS
UniProt O15527, whole entry: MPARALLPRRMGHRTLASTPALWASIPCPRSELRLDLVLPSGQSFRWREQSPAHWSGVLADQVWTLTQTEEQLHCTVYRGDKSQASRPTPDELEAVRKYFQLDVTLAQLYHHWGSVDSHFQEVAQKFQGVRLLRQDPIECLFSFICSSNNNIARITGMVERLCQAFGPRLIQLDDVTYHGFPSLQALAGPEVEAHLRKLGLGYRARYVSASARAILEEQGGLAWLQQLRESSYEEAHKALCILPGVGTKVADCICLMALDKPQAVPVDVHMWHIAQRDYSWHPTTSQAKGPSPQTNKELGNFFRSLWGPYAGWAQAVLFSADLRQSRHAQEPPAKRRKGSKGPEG

Data set [2] concerns the target OGG1 (8-oxoguanine DNA glycosylase) (UniProt O15527). The experiment in a line: EMSA. The note with it: EMSA: DNA-binding buffer (composition not given), 10 min on ice then 10 min at 37 C, 7% native PAGE in 1x TBE, commercial protein, label: 5'-FAM on strand 2.
The target of data set [3] is NF-kB p65 (Homo sapiens (A549 cells)) (UniProt Q04206). The experiment in a line: pull-down. As to conditions: nuclear extract of H2O2-treated A549 cells, immunoblot, pull-down: 4 C, 12 h, 1 mM PMSF, protein in an extract. (In general: A western blot detects proteins with antibodies after separation by electrophoresis.)

For at least one entry, the source does not settle the construct or the ends of the probe. A weaker result is weaker than the reference pair of the same experiment. For part of these data: At least one verdict was read from the data and is not stated in words by the source. For part of these data: At least one result comes from cells or an extract, where the contact may be indirect.

As for “CGGGCGGGCGGGAGGGCTGGCGGGCGGCCCCC (double strand) [8-oxoG-SYT7 (FAM)]”, the binding result in data set [1] (band lost with anti-NF-kB antibody, 8-oxoG at position 12 of strand 1 (printed ...CGGoGAGGG...)) is listed as “binds”; in data set [2] (10 uM Th5487 (inhibits binding), 100 ng OGG1, 8-oxoG at position 12 of strand 1 (printed ...CGGoGAGGG...)), “binds more weakly”. As for “CGGGCGGGCGGGAGGGCTGGCGGGCGGCCCCC (double strand) [Biotin-8-oxoG-oligo]”, the binding result in data set [3] (8-oxoG at position 12 of strand 1 (printed ...CGGoGAGGG...), PBS …) is reported as “binds”. Consider “CGGGCGGGCGGGAGGGCTGGCGGGCGGCCCCC (double strand) [Biotin-G-oligo]”, for which the binding result in data set [3] (PBS washes) is listed as “binds more weakly”. On to “CGGGCGGGCGGGAGGGCTGGCGGGCGGCCCCC (double strand) [G-SYT7 (FAM)]”, for which the binding result in data set [1] and in data set [2] was “binds more weakly” throughout.

The values are drawn from article PMC11375530.
